Reference: US20160144021A1, “Vaccine Composition And Method Of Use” (MEDIMMUNE, LLC, priority 2013, published 2016)
Some of these results come from one statement about several compounds together.

Tested on: RSV A2
Assay: RSV microneutralization of sera, seropositive cotton rats
Assay type: in vivo
Settings: first study, 10 days post immunization, 10 μg RSV sF

RSV sF: RSV soluble F protein, amino acids 1-524 of the RSV A2 F sequence lacking the transmembrane domain, given without adjuvant
geometric mean rise in neutralizing titer from baseline: ≥ 4 fold
